The list shows a part of the results. This data set is noisy: repeats of one test often differ as much as different tests do.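 Free-swimming zebrafish larvae were assessed for O-bend response probability to dark flashes (naive: first five; training: remaining flashes across four 60-flash blocks; test: later 60-flash block) and for OMR turning toward alternating leftward/rightward LED motion. Six treated larvae were compared against sixty 0.1% DMSO controls; hits required |SSMD|≥2.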
What follows are compounds tested on Danio rerio larvae (5 dpf, TLF) (assay: Prob-Naive (SSMD vs DMSO vehicle); higher = higher than vehicle (e.g. higher dark-flash O-bend response probability, or better optomotor performance)). Settings: 10 µM; pre-incubation: 30-90 min.
`CCOC(=O)O[C@@]1(C(=O)OCCl)CC[C@H]2[C@@H]3CCC4=CC(=O)C=C[C@]4(C)[C@@H]3[C@H](O)C[C@@]21C` [Loteprednol etabonate] gave a Prob-Naive of 0.0939.
`C[C@@](Cc1ccc(O)c(O)c1)(NN)C(=O)O` [Carbidopa] gave a Prob-Naive of -0.196.
In the case of `CC(C)c1ccccc1Cc1cc(C(=O)Nc2ccc(S(=O)(=O)c3ccccc3C(C)(C)C)cc2)c(O)c(O)c1O`, the Prob-Naive is reported as -0.0443.
With `CS(=O)c1ccc(-c2nc(-c3ccc(F)cc3)c(-c3ccncc3)[nH]2)cc1` (stereo unspecified) the Prob-Naive was 0.17.
`Clc1ccc(C2(c3ccc(-c4cn[nH]c4)cc3)CCNCC2)cc1` showed a Prob-Naive of 0.313.
In the case of `CC[C@H](/C=C/[C@@H](C)[C@@H]1CC[C@H]2[C@@H]3CC=C4C[C@@H](O)CC[C@]4(C)[C@@H]3CC[C@@]21C)C(C)C` [Stigmasterol], the Prob-Naive is reported as -0.365.
With `CC(=O)NC[C@H]1CN(c2ccc(N3CCOCC3)c(F)c2)C(=O)O1` [Linezolid] the Prob-Naive was -0.341.
In the case of `CC[N+](CC)(CC)CCOc1cccc(OCC[N+](CC)(CC)CC)c1OCC[N+](CC)(CC)CC.[I-].[I-].[I-]` [Gallamine Triethiodide], the Prob-Naive is reported as 0.028.
For `CN1CCN(c2ccc3nc(-c4c(N)c5c(F)cccc5[nH]c4=O)[nH]c3c2)CC1` [Dovitinib (TKI-258, CHIR-258)], the Prob-Naive was 0.568.
`O=C(Nc1cccc(Cl)c1)c1ccccn1` was tested, and the Prob-Naive was -0.541.
`CC(O)C(=O)O.CC(O)C(=O)O.CN1CCN(c2ccc3nc(-c4c(N)c5c(F)cccc5[nH]c4=O)[nH]c3c2)CC1` [Dovitinib (TKI-258) Dilactic Acid] was tested, and the Prob-Naive was 0.319.

Reference: the supplement of paper PMC10727501
